Laboratory results reported in the supplement of paper PMC11348887.
Structures can show the parent of a compound that is named as a salt. The list shows a part of the results. Most values lie at the level of the controls, where differences are scatter.

Each compound was assayed on hPSC-derived cortical neurons (WA09) (assay: nucleus area z-score vs screen plate; higher = larger nuclei (more mature)). Details: 5 µM; treatment: days 7-14 after plating, readout day 21.

| SMILES | nucleus area z-score |
| --- | --- |
| CNC[C@H](O)[C@@H](O)[C@H](O)[C@H](O)CO [Meglumine] | -0.66 |
| NNc1nncc2ccccc12 [Hydralazine HCl] | -1.01 |
| C[C@@H](N)[C@H]1CC[C@H](C(=O)Nc2ccncc2)CC1 | 2.06 |
| CNC(=O)c1cc(Oc2ccc(NC(=O)Nc3ccc(Cl)c(C(F)(F)F)c3)cc2)ccn1 [Sorafenib] | 2.68 |
| O=S(=O)(O)CCSSCCS(=O)(=O)O [Dimesna] | 0.682 |
| CCOC(=O)C1=C(C)NC(C)=C(C(=O)OCC)C1c1ccccc1/C=C/C(=O)OC(C)(C)C [Lacidipine] | -0.508 |
| CC(=O)c1cc([N+](=O)[O-])c(Sc2ccc(F)cc2F)s1 | -0.0844 |
| CS(=O)(=O)c1ccc([C@@H](O)[C@@H](CF)NC(=O)C(Cl)Cl)cc1 [Florfenicol] | -0.594 |
| COC(=O)[C@H](c1ccccc1Cl)N1CCc2sccc2C1 [Clopidogrel] | -1.43 |
| COc1ccnc(C[S+]([O-])c2nc3cc(OC(F)F)ccc3[nH]2)c1OC (stereo not given) [Pantoprazole sodium] | -0.0546 |
| CCOC(=O)c1ncn2c1CN(C)C(=O)c1cc(F)ccc1-2 [Flumazenil] | 0.0905 |
| COCC(=O)NC/C=C/c1ccc2ncnc(Nc3ccc(Oc4ccc(C)nc4)c(C)c3)c2c1 | 1.44 |
| CN(C)[C@@H]1C(O)=C(C(N)=O)C(=O)[C@@]2(O)C(O)=C3C(=O)c4c(O)cccc4[C@@](C)(O)[C@H]3C[C@@H]12 [Tetracycline HCl] | -0.142 |
| Cc1cc(C)nc(NS(=O)(=O)c2ccc(N)cc2)n1 [Sulfamethazine] | 1.03 |
| CC(C)C[C@H](NC(=O)[C@H]1O[C@@H]1C(=O)O)C(=O)NCCCCN=C(N)N | -5.7 |
| O=C(/C=C/c1ccc(CN(CCO)CCc2c[nH]c3ccccc23)cc1)NO [LAQ824 (Dacinostat)] | -8.22 |
| Nc1cc(C(F)(F)F)c(-c2cc(N3CCOCC3)nc(N3CCOCC3)n2)cn1 [BKM120 (NVP-BKM120_ Buparlisib)] | -7.13 |
| COc1cc(F)c(F)c(Nc2ccc(I)cc2F)c1NS(=O)(=O)C1(C[C@H](O)CO)CC1 [Refametinib (RDEA119_ Bay 86-9766)] | -0.0867 |

Two entries drawn at random from those above, as already listed:

| SMILES | nucleus area z-score |
| --- | --- |
| COCC(=O)NC/C=C/c1ccc2ncnc(Nc3ccc(Oc4ccc(C)nc4)c(C)c3)c2c1 | 1.44 |
| O=C(/C=C/c1ccc(CN(CCO)CCc2c[nH]c3ccccc23)cc1)NO [LAQ824 (Dacinostat)] | -8.22 |

(further entries)

| SMILES | nucleus area z-score |
| --- | --- |
| CC[C@H]1OC(=O)[C@H](C)[C@@H](O[C@H]2C[C@@](C)(OC)[C@@H](O)[C@H](C)O2)[C@H](C)[C@@H](O[C@@H]2O[C@H](C)C[C@H](N(C)C)[C@H]2O)[C@](C)(OC)C[C@@H](C)C(=O)[C@H](C)[C@@H](O)[C@]1(C)O [Clarithromycin] | 1.43 |
| Nc1nc(N)c(N=O)c(OCC2CCCCC2)n1 | 1.46 |
| COCCOc1nc(-c2ccc(Cl)c(Cl)c2)n(-c2ccc(NC(=O)CCl)cc2)n1 [MI-2 (MALT1 inhibitor)] | -4.32 |
| CC(=O)Oc1cc2c(s1)CCN(C(C(=O)C1CC1)c1ccccc1F)C2 (stereo not given) [Prasugrel Hydrochloride] | 0.0758 |
| C[N+]1(C)CCC(=C(c2ccccc2)c2ccccc2)CC1 [Diphemanil Methylsulfate] | -0.232 |
| FC(F)(F)C(Cl)Br (stereo not given) [Halothane] | -0.331 |
| CC(C)(CCCCCC(O)CCCCCC(C)(C)C(=O)O)C(=O)O | 0.107 |
| COC(=O)Nc1nc2cc(C(=O)c3ccc(F)cc3)ccc2[nH]1 [Flubendazole] | 0.69 |
| CC1CCc2cc(F)cc3c(=O)c(C(=O)O)cn1c23 (stereo not given) [Flumequine] | 0.304 |
| COc1ccc(C[C@@H]2c3cc(OC)c(OC)cc3CC[N@+]2(C)CCC(=O)OCCCCCOC(=O)CC[N@@+]2(C)CCc3cc(OC)c(OC)cc3[C@H]2Cc2ccc(OC)c(OC)c2)cc1OC [Cisatracurium Besylate] | 0.638 |
| C=CC(C)(C)c1cc(/C=C/C(=O)c2ccc(O)cc2)c(OC)cc1O [Licochalcone A] | 0.0563 |
| CN1[C@@H]2CC[C@H]1C[C@@H](OC(c1ccccc1)c1ccccc1)C2 [Benztropine mesylate] | 1.28 |
| CNC(=O)c1cc(Oc2ccc(NC(=O)Nc3ccc(Cl)c(C(F)(F)F)c3)cc2)ccn1 [Sorafenib Tosylate] | 1.33 |
| CC1=C(C(=O)Nc2cc3cn[nH]c3cc2F)C(c2ccc(C(F)(F)F)cc2)CC(=O)N1 (stereo not given) | -0.827 |
| NC(=S)N/N=C/c1ncccc1N [Triapine] | -0.772 |
| O=C(OCC(O)CO)c1ccccc1Nc1ccnc2cc(Cl)ccc12 (stereo not given) [Glafenine HCl] | -0.0224 |
| Brc1c(NC2=NCCN2)ccc2nccnc12 [Brimonidine Tartrate] | 0.295 |
